Source: patent publication US20130116146A1 (University of California, published 2013)
No constants are given. Whether binding was seen depends on the method and setting. Some binding calls cover weakened binding; strength is not graded here.

Protein sequences, listed by entry. Tags and fused reporters are not part of them. Lines headed by an entry give the natural chain unless they say otherwise; changes in a name come on top. Residues count along the entry.
UniProt P00519, residues 61-121: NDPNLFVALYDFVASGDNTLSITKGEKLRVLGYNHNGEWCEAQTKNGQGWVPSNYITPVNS
UniProt Q9BYW2: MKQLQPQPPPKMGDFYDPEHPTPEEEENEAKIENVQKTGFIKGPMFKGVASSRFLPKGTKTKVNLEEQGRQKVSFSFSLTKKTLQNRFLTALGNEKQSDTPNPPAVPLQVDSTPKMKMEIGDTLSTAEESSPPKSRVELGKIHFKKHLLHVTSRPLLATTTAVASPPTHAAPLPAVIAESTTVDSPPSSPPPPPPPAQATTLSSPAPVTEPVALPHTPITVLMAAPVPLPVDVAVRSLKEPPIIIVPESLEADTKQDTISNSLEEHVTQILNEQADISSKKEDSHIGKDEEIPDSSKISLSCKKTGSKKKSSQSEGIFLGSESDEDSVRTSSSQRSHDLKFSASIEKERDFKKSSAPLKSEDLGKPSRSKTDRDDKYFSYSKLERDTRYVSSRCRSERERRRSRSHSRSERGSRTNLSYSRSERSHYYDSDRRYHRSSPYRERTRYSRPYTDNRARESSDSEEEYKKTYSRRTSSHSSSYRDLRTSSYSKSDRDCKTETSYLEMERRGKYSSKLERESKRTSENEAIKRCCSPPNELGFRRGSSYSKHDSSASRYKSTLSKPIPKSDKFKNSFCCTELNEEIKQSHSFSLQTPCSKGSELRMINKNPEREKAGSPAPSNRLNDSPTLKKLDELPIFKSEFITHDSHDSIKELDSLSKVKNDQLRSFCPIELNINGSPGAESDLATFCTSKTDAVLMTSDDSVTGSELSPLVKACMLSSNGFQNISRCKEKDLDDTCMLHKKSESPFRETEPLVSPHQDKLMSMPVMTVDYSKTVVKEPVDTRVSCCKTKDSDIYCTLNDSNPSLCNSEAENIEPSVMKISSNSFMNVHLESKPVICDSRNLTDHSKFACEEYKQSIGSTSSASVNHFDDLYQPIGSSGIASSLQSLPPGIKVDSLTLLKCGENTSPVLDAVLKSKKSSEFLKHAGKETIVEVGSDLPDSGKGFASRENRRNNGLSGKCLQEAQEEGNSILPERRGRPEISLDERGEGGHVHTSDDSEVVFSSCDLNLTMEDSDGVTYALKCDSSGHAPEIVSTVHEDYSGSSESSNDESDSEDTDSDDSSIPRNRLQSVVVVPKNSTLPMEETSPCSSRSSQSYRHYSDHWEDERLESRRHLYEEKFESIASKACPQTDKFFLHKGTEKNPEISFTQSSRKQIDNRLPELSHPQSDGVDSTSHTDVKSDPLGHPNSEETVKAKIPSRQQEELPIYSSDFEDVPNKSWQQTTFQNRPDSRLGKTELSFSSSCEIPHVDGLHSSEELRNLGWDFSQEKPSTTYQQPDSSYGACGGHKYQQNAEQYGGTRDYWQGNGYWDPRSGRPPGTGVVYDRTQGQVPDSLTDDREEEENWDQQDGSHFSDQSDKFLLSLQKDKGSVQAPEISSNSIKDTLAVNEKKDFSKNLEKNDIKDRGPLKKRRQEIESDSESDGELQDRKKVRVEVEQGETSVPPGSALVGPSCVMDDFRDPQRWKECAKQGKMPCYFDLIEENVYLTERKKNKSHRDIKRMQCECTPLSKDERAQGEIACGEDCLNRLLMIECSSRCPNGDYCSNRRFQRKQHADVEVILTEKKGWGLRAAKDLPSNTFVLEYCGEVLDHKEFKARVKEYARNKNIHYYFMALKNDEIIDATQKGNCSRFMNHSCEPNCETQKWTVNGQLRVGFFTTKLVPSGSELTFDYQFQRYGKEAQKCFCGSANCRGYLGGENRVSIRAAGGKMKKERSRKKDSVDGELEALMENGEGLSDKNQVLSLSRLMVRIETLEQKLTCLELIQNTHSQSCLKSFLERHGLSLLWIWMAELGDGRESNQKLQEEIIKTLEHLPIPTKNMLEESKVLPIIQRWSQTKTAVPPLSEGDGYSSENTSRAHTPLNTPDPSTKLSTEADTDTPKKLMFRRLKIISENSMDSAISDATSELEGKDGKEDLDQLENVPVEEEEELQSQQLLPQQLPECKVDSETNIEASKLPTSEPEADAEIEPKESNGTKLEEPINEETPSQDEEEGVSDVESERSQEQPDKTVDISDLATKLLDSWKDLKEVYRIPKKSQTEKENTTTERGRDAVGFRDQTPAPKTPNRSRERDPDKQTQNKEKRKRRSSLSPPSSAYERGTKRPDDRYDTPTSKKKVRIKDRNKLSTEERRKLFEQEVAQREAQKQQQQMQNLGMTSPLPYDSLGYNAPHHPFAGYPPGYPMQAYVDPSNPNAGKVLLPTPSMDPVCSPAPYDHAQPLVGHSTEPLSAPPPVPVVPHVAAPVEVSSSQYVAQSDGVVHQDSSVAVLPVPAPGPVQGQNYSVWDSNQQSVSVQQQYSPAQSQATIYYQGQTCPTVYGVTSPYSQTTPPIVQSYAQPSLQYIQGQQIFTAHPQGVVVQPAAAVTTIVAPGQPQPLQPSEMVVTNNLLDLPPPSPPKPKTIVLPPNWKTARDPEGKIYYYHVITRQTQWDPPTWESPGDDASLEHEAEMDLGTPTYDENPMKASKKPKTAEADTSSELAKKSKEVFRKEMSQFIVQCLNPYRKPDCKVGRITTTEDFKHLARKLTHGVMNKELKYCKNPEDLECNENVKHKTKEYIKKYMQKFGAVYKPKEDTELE

Target: T1, GST-tagged Abl SH3 domain fusion protein (human, UniProt P00519 61-121, limits assumed)
T1 construct: domain: SH3 domain; also called GST-Abl SH3; Abl1 SH3 domain; not shown: GST tag
Experiment: peptide microarray production run, GST-Abl SH3 5 uM overlaid

| Binder | binding |
| --- | --- |
| SPPSSPPPPP (peptide, UniProt Q9BYW2 185-194, looked up, N-terminal aminohexanoic acid (Ahx) linker) [SETD2 peptide (amino acid 185-194)] | binds |
| PSSPPPPPPP (peptide, UniProt Q9BYW2 187-196, looked up, N-terminal aminohexanoic acid (Ahx) linker) [SETD2 peptide (amino acid 187-196)] | binds |
